This assay deals with HA-tagged p27 wild type (human) (UniProt P46527). Put plainly: affinity purification with mass spectrometry; lysates of transfected HEK293 cells mixed with anti-HA agarose beads at 4 °C overnight, rinsed with TBS 0.1% Tween 20, eluted with 0.2 M glycine pH 2.0, SDS-PAGE bands to LC-MS; untagged p27 as negative control.

Chains of the proteins cited; added tags and fusions are not shown.
UniProt P46527: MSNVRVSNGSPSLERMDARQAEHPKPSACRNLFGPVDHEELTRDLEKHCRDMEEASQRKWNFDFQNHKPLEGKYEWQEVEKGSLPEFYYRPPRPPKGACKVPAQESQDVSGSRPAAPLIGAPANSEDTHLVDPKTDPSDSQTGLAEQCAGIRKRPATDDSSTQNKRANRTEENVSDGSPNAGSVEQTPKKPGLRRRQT
UniProt P06748: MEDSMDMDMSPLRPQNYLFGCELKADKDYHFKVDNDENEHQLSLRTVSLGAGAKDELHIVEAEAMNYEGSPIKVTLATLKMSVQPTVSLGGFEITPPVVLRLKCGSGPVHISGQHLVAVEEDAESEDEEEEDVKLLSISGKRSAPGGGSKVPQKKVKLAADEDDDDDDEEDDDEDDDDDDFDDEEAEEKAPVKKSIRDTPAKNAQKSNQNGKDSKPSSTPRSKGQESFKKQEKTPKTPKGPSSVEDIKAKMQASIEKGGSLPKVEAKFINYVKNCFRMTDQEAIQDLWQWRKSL

No constants are given. Whether binding was seen depends on the method and setting. Binding seen in cells or lysates may run through a third protein. These calls come from enrichment with a bait or labelling near it, and not all partners need be listed.

In the case of “nucleophosmin isoform 1 (NPM1), endogenous human (from UniProt P06748 1-294)”, the binding entry is “binds”.

For the origin of these results see publication PMC7600800.
